Source: patent US20070238725A1, “Therapeutic combinations for the treatment or prevention of psychotic disorders” (Wyeth, priority 2006, published 2007)
Some entries share one result that the patent states for a list of compounds. Some ranges recur; such a range may be that of the whole group of compounds.

Tested on: conditioned avoidance responding
Assay: Conditioned avoidance responding
Assay type: in vivo
Details: administered individually, 30 min pretreatment, rats
Protocol: (Compound 2, “cpd 2”) to exemplify, the present Example describes an experiment to determine the effect of co-administration of haloperidol (0.54 mg/kg, i.p. 30′ pretreatment) or clozapine (5.4 mg/kg, i.p., 30′ pretreatment) and compound 1 (0.54 mg/kg, i.p., 30′ pretreatment) or compound 2 (1 mg/kg, i.p. 30′ pretreatment) on conditioned avoidance responding.
Male rats had been trained to a stable criterion performance of 90% avoidance responding and had been used in previous drug studies. The dosing plan was a within subject pseudo random design so that all rats received all treatments over several weeks. On test days in experiments 1 and 2 the rats were dosed with vehicle, Compound 1, haloperidol or clozapine or a combination of Compound 1/haloperidol or Compound 1/clozapine. On test days in experiments 3 and 4 the rats were dosed with vehicle, Compound 2, haloperidol or clozapine or a combination of Compound 2/haloperidol or Compound 2/clozapine. Conditioned avoidance testing commenced 30 minutes after treatment and the rats received 50 trials and the number of avoidance, escape and no response trials was recorded.

c1cc2c3c(c1)[C@H]1CCC[C@H]1CN3CCNC2 [Compound 2]
decrease in avoidance responding (1 mg/kg i.p.): 10-20%

O=C(CCCN1CCC(O)(c2ccc(Cl)cc2)CC1)c1ccc(F)cc1 [haloperidol, 4-[4-(4-chlorophenyl)-4-hydroxy-1-piperidinyl]-1-(4-fluoro-phenyl)-1-butanone, reference compound]
decrease in avoidance responding (0.54 mg/kg i.p.): 10-20%

CN1CCN(C2=Nc3cc(Cl)ccc3Nc3ccccc32)CC1 [clozapine, 8-chloro-11-(4-methyl-1-piperazinyl)-5H-dibenzo[b,e]-[1,4]-diazepine, reference compound]
decrease in avoidance responding (5.4 mg/kg i.p.): 10-20%
